PubChem BioAssay AID1224828 – NIAID | 2016
Shown is an unselected part of about 17,000 deposited reagents. Of all reagents, 762 (4.5%) were called active. 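Active calls include both raised and lowered p65 entry, mostly lowered; wells with fewer than 50 cells lack a z-score.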 Raw values are not corrected between plates. Reagent sequences are not shown.

Assay: 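Knock-downs that increase or decrease LPS-induced p65 nuclear translocation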 (primary screen)
System: mouse RAW264.7 G9 macrophage reporter cells (GFP-p65, Tnf promoter-mCherry)
Reagents: siRNA pool against mouse genes, 100 nM
Time to read-out: 2 days siRNA transfection, then 40 min LPS before fixation
Conditions: LPS (Salmonella minnesota R595) at 10 ng/ml
Measured: 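Microscopy ratio of nuclear to perinuclear-ring GFP-p65 signal, scaled to the plate median; gene score is the average of two replicate robust z-scores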
Scale: p65 translocation robust z-score: higher = more nuclear NF-kappaB p65 after LPS than the plate median; nuclear/cytoplasmic p65 ratio: higher = more nuclear NF-kappaB p65
Hit rule: 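Active if robust z is above 3.3 (negative regulators) or below -1.56, the Tlr4 control median (positive regulators); activity score 50 or more; control wells not called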
Calls: active = hit (p65 shift raised or lowered); inactive = no clear change

Target gene | p65 translocation robust z-score | nuclear/cytoplasmic p65 ratio, rep 1 | nuclear/cytoplasmic p65 ratio, rep 2 | low cell count flag | call
Itm2c (integral membrane protein 2C) | 0.23 | 1.61 | 1.44 | enough cells to score | inactive
Crisp3 (cysteine-rich secretory protein 3) | 0.76 | 1.71 | 1.88 | enough cells to score | inactive
Tlr9 (toll-like receptor 9) | 1.09 | 1.63 | 1.71 | enough cells to score | inactive
Rnf20 (ring finger protein 20) | – | 1.23 | 1.1 | fewer than 50 cells per well; well left out of scoring | inactive
Nucb2 (nucleobindin 2) | -0.31 | 1.38 | 1.39 | enough cells to score | inactive
Umps (uridine monophosphate synthetase) | 1.85 | 1.64 | 1.88 | enough cells to score | inactive
Pgpep1 (pyroglutamyl-peptidase I) | 0.18 | 1.54 | 1.48 | enough cells to score | inactive
Rbak (RB-associated KRAB zinc finger) | -1.49 | 1.33 | 1.28 | enough cells to score | inactive
Mfng (MFNG O-fucosylpeptide 3-beta-N-acetylglucosaminyltransferase) | 0.42 | 1.39 | 1.49 | enough cells to score | inactive
Tonsl (tonsoku-like, DNA repair protein) | -0.48 | 1.56 | 1.53 | enough cells to score | inactive
Phf14 (PHD finger protein 14) | 0.09 | 1.41 | 1.32 | enough cells to score | inactive
Trib1 (tribbles pseudokinase 1) | – | 2.3 | 1.71 | fewer than 50 cells per well; well left out of scoring | inactive
Fbxo48 (F-box protein 48) | – | 1.34 | 1.36 | fewer than 50 cells per well; well left out of scoring | inactive
Nomo1 (nodal modulator 1) | 1.39 | 1.64 | 1.56 | enough cells to score | inactive
Rpusd1 (RNA pseudouridylate synthase domain containing 1) | – | 2.06 | 1.58 | fewer than 50 cells per well; well left out of scoring | inactive
A230059G12Rik (RIKEN cDNA A230059G12 gene) | 1.53 | 1.37 | 1.74 | enough cells to score | inactive
Snap47 (synaptosomal-associated protein, 47) | -0.35 | 1.46 | 1.43 | enough cells to score | inactive
Gspt2 (G1 to S phase transition 2) | -0.29 | 1.67 | 1.44 | enough cells to score | inactive
Vps13c (vacuolar protein sorting 13C) | 1.7 | 1.85 | 1.76 | enough cells to score | inactive
Ggta1 (glycoprotein galactosyltransferase alpha 1, 3) | -1.59 | 1.33 | 1.28 | enough cells to score | active
Ppp4r1 (protein phosphatase 4, regulatory subunit 1) | -1.27 | 1.31 | 1.26 | enough cells to score | inactive
Serpina11 | -1.21 | 1.32 | 1.12 | enough cells to score | inactive
Zfp395 (zinc finger protein 395) | -0.53 | 1.5 | 1.37 | enough cells to score | inactive
Itsn2 (intersectin 2) | 0.19 | 1.57 | 1.59 | enough cells to score | inactive

Reformatted: 3 of the entries above
{"Target gene": "Rnf20 (ring finger protein 20)", "nuclear/cytoplasmic p65 ratio, rep 1": 1.23, "nuclear/cytoplasmic p65 ratio, rep 2": 1.1, "low cell count flag": "fewer than 50 cells per well; well left out of scoring", "call": "inactive"}
{"Target gene": "Nucb2 (nucleobindin 2)", "p65 translocation robust z-score": -0.31, "nuclear/cytoplasmic p65 ratio, rep 1": 1.38, "nuclear/cytoplasmic p65 ratio, rep 2": 1.39, "low cell count flag": "enough cells to score", "call": "inactive"}
{"Target gene": "Umps (uridine monophosphate synthetase)", "p65 translocation robust z-score": 1.85, "nuclear/cytoplasmic p65 ratio, rep 1": 1.64, "nuclear/cytoplasmic p65 ratio, rep 2": 1.88, "low cell count flag": "enough cells to score", "call": "inactive"}
